Sequences of proteins named here, by UniProt entry; tags and fusion partners are left off. A change or cut given only in a name is not applied to a line headed by its entry.
UniProt Q9HCE0: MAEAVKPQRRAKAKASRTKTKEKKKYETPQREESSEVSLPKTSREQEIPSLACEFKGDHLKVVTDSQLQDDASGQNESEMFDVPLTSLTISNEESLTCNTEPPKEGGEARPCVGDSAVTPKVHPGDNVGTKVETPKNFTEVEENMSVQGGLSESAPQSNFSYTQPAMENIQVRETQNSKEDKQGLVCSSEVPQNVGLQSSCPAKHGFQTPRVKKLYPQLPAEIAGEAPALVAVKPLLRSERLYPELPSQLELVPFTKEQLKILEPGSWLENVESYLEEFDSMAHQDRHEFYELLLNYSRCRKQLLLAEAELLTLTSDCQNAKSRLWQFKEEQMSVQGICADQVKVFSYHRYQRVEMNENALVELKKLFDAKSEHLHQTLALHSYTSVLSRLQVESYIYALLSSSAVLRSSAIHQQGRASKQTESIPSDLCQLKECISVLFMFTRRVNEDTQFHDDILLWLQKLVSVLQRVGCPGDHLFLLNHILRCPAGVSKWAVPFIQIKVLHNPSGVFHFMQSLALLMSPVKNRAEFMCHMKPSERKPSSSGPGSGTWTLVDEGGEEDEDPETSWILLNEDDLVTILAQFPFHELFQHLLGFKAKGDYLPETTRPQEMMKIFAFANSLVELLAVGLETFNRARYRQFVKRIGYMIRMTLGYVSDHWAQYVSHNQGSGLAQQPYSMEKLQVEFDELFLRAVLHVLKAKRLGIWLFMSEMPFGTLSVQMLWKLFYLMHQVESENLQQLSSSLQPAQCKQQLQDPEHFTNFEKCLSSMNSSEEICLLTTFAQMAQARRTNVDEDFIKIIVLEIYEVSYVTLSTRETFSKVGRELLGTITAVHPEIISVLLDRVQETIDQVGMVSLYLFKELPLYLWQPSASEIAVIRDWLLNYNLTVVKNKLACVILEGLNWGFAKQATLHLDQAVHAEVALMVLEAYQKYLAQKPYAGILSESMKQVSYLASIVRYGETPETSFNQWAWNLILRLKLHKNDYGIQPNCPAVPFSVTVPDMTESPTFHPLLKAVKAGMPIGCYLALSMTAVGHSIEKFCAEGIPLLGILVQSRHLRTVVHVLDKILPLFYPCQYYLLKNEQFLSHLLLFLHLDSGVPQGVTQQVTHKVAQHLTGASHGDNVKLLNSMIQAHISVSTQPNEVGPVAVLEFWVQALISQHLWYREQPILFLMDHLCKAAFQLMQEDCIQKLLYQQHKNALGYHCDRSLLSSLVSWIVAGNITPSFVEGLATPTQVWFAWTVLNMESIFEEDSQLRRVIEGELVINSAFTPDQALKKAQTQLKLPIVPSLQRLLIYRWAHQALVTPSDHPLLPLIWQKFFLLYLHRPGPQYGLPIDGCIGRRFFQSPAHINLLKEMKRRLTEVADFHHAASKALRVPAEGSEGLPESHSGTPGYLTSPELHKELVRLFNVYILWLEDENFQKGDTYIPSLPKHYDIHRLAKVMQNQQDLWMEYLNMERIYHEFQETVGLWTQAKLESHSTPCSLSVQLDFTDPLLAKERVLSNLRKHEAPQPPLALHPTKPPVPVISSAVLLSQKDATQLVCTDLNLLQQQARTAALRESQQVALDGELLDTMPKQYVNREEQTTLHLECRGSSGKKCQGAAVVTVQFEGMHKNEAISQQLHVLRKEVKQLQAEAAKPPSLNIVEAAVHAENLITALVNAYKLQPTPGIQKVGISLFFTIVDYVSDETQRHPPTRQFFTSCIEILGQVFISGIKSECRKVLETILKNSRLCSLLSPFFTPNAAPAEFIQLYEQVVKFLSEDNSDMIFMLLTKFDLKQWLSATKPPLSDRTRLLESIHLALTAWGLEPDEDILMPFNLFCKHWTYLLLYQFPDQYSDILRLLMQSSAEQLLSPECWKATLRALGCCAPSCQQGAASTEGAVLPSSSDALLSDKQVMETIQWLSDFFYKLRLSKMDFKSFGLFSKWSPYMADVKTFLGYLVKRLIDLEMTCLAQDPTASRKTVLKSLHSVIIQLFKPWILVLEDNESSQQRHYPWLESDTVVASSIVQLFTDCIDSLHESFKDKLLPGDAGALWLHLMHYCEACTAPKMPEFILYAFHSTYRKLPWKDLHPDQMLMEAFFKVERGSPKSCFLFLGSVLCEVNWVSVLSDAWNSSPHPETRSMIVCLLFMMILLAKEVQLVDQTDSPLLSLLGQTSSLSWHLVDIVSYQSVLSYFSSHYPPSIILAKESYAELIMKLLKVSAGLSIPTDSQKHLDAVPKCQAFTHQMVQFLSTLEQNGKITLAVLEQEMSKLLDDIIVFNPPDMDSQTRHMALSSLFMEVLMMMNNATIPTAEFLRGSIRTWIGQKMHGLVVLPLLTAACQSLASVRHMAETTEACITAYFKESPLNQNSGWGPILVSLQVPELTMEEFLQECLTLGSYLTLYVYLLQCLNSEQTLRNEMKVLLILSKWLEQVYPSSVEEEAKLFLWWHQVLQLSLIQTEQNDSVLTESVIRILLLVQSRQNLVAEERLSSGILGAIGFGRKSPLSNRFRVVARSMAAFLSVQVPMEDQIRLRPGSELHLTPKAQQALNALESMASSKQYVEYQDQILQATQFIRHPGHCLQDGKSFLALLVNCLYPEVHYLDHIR
UniProt Q15910, whole entry, looked up: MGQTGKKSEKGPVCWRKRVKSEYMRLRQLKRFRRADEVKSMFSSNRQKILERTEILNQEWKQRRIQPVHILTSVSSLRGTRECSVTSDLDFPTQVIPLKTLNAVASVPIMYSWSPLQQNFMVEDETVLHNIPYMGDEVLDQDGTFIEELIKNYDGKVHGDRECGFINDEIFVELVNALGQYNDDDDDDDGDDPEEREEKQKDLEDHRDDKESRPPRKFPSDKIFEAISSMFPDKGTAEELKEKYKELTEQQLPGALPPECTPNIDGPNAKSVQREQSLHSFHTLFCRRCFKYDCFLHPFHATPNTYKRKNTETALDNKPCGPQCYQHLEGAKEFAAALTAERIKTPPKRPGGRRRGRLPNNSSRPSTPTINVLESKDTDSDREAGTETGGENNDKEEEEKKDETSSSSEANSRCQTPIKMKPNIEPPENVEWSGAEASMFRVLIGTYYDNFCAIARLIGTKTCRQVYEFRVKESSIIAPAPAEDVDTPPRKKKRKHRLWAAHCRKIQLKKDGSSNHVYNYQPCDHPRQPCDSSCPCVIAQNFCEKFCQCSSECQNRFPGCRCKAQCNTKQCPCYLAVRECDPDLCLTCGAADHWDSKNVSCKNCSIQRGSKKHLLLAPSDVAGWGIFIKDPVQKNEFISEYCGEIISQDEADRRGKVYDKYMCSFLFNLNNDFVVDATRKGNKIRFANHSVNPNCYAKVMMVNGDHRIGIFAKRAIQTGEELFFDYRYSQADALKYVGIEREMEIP
UniProt O60447: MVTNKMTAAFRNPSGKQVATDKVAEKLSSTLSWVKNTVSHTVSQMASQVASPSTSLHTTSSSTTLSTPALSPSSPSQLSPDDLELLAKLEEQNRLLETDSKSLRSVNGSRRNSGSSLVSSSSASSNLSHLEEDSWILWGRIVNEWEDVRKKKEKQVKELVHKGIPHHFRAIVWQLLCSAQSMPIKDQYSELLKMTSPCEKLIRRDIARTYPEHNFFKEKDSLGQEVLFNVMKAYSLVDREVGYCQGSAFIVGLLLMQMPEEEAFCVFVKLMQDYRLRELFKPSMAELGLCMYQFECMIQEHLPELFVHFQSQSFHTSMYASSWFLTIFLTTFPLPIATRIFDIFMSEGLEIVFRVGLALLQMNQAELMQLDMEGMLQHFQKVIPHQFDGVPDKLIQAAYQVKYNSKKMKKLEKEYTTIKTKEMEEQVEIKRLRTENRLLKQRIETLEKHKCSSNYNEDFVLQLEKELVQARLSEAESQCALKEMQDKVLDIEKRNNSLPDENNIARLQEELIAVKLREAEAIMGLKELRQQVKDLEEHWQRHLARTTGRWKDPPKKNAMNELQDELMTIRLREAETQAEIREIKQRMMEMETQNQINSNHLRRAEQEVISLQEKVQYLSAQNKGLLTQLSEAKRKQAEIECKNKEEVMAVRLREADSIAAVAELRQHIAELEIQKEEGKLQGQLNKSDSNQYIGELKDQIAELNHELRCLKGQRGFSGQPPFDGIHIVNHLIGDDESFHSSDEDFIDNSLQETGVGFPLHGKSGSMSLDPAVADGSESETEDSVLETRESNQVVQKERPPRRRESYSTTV
UniProt P07992: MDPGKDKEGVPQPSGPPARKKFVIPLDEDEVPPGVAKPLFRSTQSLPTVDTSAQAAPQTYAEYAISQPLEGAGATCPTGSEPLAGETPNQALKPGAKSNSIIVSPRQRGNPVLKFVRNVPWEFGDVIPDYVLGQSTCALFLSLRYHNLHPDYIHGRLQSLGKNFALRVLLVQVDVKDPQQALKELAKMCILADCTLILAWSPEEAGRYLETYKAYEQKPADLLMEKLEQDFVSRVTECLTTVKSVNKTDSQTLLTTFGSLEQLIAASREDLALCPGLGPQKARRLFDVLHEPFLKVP
UniProt Q9H098: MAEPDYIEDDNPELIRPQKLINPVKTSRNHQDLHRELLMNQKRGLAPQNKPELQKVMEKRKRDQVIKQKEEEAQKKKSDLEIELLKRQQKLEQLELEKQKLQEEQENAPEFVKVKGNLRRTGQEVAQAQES
UniProt Q8IV48: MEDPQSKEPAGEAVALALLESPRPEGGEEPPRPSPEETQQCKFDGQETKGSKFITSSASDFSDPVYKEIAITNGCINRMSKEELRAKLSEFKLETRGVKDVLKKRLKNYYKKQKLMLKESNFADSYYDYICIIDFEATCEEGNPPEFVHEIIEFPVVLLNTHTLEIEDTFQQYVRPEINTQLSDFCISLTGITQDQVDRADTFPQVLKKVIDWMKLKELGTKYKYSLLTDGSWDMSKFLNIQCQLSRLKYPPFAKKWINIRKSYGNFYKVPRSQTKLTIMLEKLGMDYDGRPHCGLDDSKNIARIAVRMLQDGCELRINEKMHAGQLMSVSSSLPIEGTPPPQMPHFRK
UniProt Q99504: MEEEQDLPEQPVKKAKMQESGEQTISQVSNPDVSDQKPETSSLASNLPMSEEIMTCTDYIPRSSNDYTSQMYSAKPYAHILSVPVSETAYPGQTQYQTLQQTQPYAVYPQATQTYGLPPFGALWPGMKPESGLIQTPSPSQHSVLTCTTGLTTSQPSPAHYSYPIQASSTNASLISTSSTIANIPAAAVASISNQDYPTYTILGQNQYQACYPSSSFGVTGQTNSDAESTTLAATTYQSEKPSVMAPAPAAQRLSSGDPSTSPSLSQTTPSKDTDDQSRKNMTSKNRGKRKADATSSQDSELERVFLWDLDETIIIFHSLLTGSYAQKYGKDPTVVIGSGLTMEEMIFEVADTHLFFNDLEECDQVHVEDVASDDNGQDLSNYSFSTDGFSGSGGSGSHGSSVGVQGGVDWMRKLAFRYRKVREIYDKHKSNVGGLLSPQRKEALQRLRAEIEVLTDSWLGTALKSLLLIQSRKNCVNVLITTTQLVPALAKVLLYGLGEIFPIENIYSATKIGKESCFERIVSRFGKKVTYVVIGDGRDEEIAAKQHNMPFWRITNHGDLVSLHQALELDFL
UniProt P25116: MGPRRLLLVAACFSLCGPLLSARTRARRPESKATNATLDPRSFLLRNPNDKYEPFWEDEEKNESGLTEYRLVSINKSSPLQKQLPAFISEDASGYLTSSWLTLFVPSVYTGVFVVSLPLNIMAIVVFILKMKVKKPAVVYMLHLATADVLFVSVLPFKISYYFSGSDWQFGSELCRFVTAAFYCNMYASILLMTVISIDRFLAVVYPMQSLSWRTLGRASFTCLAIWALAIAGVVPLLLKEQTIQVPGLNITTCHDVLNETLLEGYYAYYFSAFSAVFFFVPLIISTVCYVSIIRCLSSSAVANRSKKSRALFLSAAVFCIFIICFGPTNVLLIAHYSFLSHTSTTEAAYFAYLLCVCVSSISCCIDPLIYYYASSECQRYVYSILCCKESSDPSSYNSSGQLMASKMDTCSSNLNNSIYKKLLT
UniProt P50548: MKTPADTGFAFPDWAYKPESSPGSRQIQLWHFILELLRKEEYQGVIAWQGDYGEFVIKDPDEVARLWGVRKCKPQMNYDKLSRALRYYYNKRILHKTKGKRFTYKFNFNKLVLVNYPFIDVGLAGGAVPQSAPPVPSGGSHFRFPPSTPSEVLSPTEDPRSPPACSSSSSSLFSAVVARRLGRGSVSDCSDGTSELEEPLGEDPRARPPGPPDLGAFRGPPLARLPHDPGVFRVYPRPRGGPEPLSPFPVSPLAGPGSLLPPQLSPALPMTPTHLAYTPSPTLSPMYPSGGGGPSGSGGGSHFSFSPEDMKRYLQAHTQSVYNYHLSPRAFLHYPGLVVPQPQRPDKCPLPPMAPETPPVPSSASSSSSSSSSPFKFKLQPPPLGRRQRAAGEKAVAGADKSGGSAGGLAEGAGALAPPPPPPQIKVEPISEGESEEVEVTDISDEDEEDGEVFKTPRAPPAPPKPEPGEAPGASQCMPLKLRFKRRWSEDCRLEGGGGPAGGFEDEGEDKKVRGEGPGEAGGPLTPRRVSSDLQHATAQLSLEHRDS

The other results are listed elsewhere or left out.
Each target was assayed with CN1C2=C(C3=C1C(=O)N(N=C3)CC4=CC(=CC=C4)N)SC(=C2)S(=O)C (assay: log2 fold change, soluble protein after heating vs DMSO (PISA); higher = thermal stabilisation; K562 cells, 10 uM, 30 min; active = over 0.2 and 3.5 SD of the protein, either way, in both replicates (recomputed)).
Outline: (§1)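 Aliquots of K562 cells (2×10^6 cells/mL) treated with 10 μM compound for 30 min were heated for 3 min over 48°C-58°C. After pooling and extraction in PBS with 0.5% NP-40 at 4°C, soluble protein from a 21,000xg, 90 min spin was quantified by TMTpro 16plex LC-MS/MS with channel sums equalised. Thermal stability is expressed against control samples, from duplicates, as a log2 fold change.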
For FAM114A1 (UniProt Q8IWE2), the log2 fold change was inactive: 0.036. EPG5 (UniProt Q9HCE0) was tested, and the log2 fold change was inactive: 0.069. For F2RL3 (UniProt Q96RI0), the log2 fold change was inactive: -0.002. With EZH2 isoform 2 (UniProt Q15910) the log2 fold change was inactive: 0.155. ESF1 (UniProt Q9H501) was tested, and the log2 fold change was inactive: 0.25. For EVI5 isoform 2 (UniProt O60447), the log2 fold change was inactive: 0.073. In the case of EPS8L1 (UniProt Q8TE68), the log2 fold change is reported as inactive: 0.267. For ERCC1 isoform 3 (UniProt P07992), the log2 fold change was inactive: 0.006. For FAM107B isoform 2 (UniProt Q9H098), the log2 fold change was inactive: 0.051. EPN1 isoform 3 (UniProt Q9Y6I3) was tested, and the log2 fold change was inactive: -0.016. ERI1 (UniProt Q8IV48) was tested, and the log2 fold change was inactive: 0.24.

Each target was assayed with CN1CCC(CNc2ccc3ncc(-c4cccc(OC(F)(F)F)c4)n3n2)CC1 in the same assay as above.
Outline: as §1
FAM110A (UniProt Q9BQ89) was tested, and the log2 fold change was inactive: -0.46. With FAM114A1 (UniProt Q8IWE2) the log2 fold change was inactive: -0.069. With FAM178B (UniProt Q8IXR5) the log2 fold change was inactive: 0.286. With FAM204A (UniProt Q9H8W3) the log2 fold change was inactive: 0.223. With EYA3 (UniProt Q99504) the log2 fold change was inactive: 0.046. For F2R (UniProt P25116), the log2 fold change was inactive: -0.487. With ESF1 (UniProt Q9H501) the log2 fold change was inactive: 0.122. In the case of EVI5 isoform 2 (UniProt O60447), the log2 fold change is reported as inactive: -0.244. In the case of FAM171A2 (UniProt A8MVW0), the log2 fold change is reported as inactive: 0.106. FAM171A1 (UniProt Q5VUB5) was tested, and the log2 fold change was inactive: 0.155. With ERF (UniProt P50548) the log2 fold change was inactive: 0.319. FADS2 (UniProt O95864) was tested, and the log2 fold change was inactive: 0.038. FAM107B isoform 2 (UniProt Q9H098) was tested, and the log2 fold change was inactive: -0.05. ERI1 (UniProt Q8IV48) was tested, and the log2 fold change was inactive: 0.163.

These targets were tested with CN1CCN(CCOc2cc(OC3CCOCC3)c3c(Nc4c(Cl)ccc5c4OCO5)ncnc3c2)CC1 [saracatinib] in the same assay as above.
Outline: as §1
In the case of FAM114A1 (UniProt Q8IWE2), the log2 fold change is reported as inactive: 0.086. In the case of EPG5 (UniProt Q9HCE0), the log2 fold change is reported as inactive: -0.004. In the case of F2RL3 (UniProt Q96RI0), the log2 fold change is reported as inactive: 0.04. EZH2 isoform 2 (UniProt Q15910) was tested, and the log2 fold change was inactive: -0.043. For ESF1 (UniProt Q9H501), the log2 fold change was inactive: 0.229. In the case of EVI5 isoform 2 (UniProt O60447), the log2 fold change is reported as inactive: -0.036. EPS8L1 (UniProt Q8TE68) was tested, and the log2 fold change was inactive: 0.129. For ERCC1 isoform 3 (UniProt P07992), the log2 fold change was inactive: 0.104. FAM107B isoform 2 (UniProt Q9H098) was tested, and the log2 fold change was inactive: 0.092. For EPN1 isoform 3 (UniProt Q9Y6I3), the log2 fold change was inactive: -0.304. With ERI1 (UniProt Q8IV48) the log2 fold change was inactive: -0.16.

Each target was assayed with CN1CCN(c2nc(C3=C(c4c[nH]c5ccccc45)C(=O)NC3=O)c3ccccc3n2)CC1 [sotrastaurin] in the same assay as above.
Outline: as §1
In the case of EPS15L1 (UniProt M0QY01), the log2 fold change is reported as inactive: 0.002. In the case of EXO5 (UniProt Q9H790), the log2 fold change is reported as inactive: 0.136. With FAM135A (UniProt Q9P2D6) the log2 fold change was inactive: -0.192. With EPG5 (UniProt Q9HCE0) the log2 fold change was inactive: -0.11. In the case of FAM204A (UniProt Q9H8W3), the log2 fold change is reported as inactive: -0.081. EPHB4 (UniProt P54760) was tested, and the log2 fold change was inactive: -0.057. In the case of EZH2 isoform 2 (UniProt Q15910), the log2 fold change is reported as inactive: 0.001. For ESF1 (UniProt Q9H501), the log2 fold change was inactive: -0.017. In the case of ERCC1 isoform 3 (UniProt P07992), the log2 fold change is reported as inactive: 0.05. With EXD2 (UniProt Q9NVH0) the log2 fold change was inactive: -0.013. ERF (UniProt P50548) was tested, and the log2 fold change was inactive: -0.058.

The targets below were run with CN1CC[C@H](c2c(O)cc(O)c3c(=O)cc(-c4ccccc4Cl)oc23)[C@H](O)C1 [alvocidib] in the same assay as above.
Outline: as §1
FAM204A (UniProt Q9H8W3) was tested, and the log2 fold change was inactive: 0.14. EYA3 (UniProt Q99504) was tested, and the log2 fold change was inactive: -0.077. F2R (UniProt P25116) was tested, and the log2 fold change was inactive: 0.029. EVI5 isoform 2 (UniProt O60447) was tested, and the log2 fold change was inactive: 0.108. With EPS8L1 (UniProt Q8TE68) the log2 fold change was inactive: 0.159. With ERCC1 isoform 3 (UniProt P07992) the log2 fold change was inactive: 0.351. EXD2 (UniProt Q9NVH0) was tested, and the log2 fold change was inactive: 0.293. In the case of ERMARD (UniProt Q5T6L9), the log2 fold change is reported as inactive: -0.018. With F13B (UniProt P05160) the log2 fold change was inactive: -0.067. For ERI1 (UniProt Q8IV48), the log2 fold change was inactive: 0.181.

What follows are targets tested with CN1CCc2c(c3ccccc3n2Cc2ccc(C(=O)NO)cc2)C1 [Tubastatin A] in the same assay as above.
Outline: as §1
With FADS1 (UniProt F5GYH4) the log2 fold change was inactive: 0.123. FAM114A1 (UniProt Q8IWE2) was tested, and the log2 fold change was inactive: 0.134. With FAM204A (UniProt Q9H8W3) the log2 fold change was inactive: 0.186. In the case of EYA3 (UniProt Q99504), the log2 fold change is reported as inactive: 0.231. In the case of F2RL3 (UniProt Q96RI0), the log2 fold change is reported as inactive: 0.082. For F2R (UniProt P25116), the log2 fold change was inactive: -0.118. EZH2 isoform 2 (UniProt Q15910) was tested, and the log2 fold change was inactive: 0.119. For EVI5 isoform 2 (UniProt O60447), the log2 fold change was inactive: 0.4. In the case of ERF (UniProt P50548), the log2 fold change is reported as inactive: 0.377. ERICH1 (UniProt Q86X53) was tested, and the log2 fold change was inactive: 0.128. For F13B (UniProt P05160), the log2 fold change was inactive: -0.123. With FAM174A (UniProt Q8TBP5) the log2 fold change was inactive: 0.104. With ERI1 (UniProt Q8IV48) the log2 fold change was inactive: 0.209.
